Experimental findings from the supplement of paper PMC4604168 (melanoma cell lines) are described below.

The other results are listed elsewhere or left out. Single values are uncertain, as repeats are few or missing.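 The apoptosis fraction was the count of cleaved-PARP antibody-stained nuclei relative to all DNA-stained nuclei, imaged in 1,536-well plates. Screening doses were set so most cells survived, and baseline and induced cleaved-PARP levels vary greatly across cell lines.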

This test deals with CBRC014 (line from a melanoma biopsy). Description: cleaved PARP positive nuclei fraction relative to DMSO control; melanoma cells; higher = more apoptosis. The note with it: library dose: low library concentration; 72 h.
Regarding `Cn1sc(=O)n(Cc2ccccc2)c1=O` + CNC(=O)c1cc(Oc2ccc(NC(=O)Nc3ccc(Cl)c(C(F)(F)F)c3)cc2)ccn1 [sorafenib] (first compound 0.4 µM, partner dose 0.4 µM), the “cleaved PARP positive nuclei fraction” value turned out to be 100%.

As for `CN(c1ncccc1CNc1nc(Nc2ccc3c(c2)CC(=O)N3)ncc1C(F)(F)F)S(C)(=O)=O` + CS(=O)(=O)CCNCc1ccc(-c2ccc3ncnc(Nc4ccc(OCc5cccc(F)c5)c(Cl)c4)c3c2)o1 [lapatinib] (first compound 0.08 µM, partner dose 0.8 µM), the “cleaved PARP positive nuclei fraction” value came to 198%. Take `CCCCCCCCc1ccc(CCC(N)(CO)CO)cc1` [fingolimod] + CC(=O)O[C@@]12CO[C@@H]1C[C@H](O)[C@@]1(C)C(=O)[C@H](O)C3=C(C)[C@@H](OC(=O)[C@H](O)[C@@H](NC(=O)OC(C)(C)C)c4ccccc4)C[C@@](O)([C@@H](OC(=O)c4ccccc4)[C@H]21)C3(C)C [Docetaxel] (first compound 2 µM, partner dose 0.0001 µM): the “cleaved PARP positive nuclei fraction” value came to 116%. With `CCCCCCCCc1ccc(CCC(N)(CO)CO)cc1` [fingolimod] + COCC[n+]1c2c(n(Cc3cnccn3)c1C)C(=O)c1ccccc1C2=O [YM155] (first compound 2 µM, partner dose 0.0004 µM), the “cleaved PARP positive nuclei fraction” value was found to be 97.2%. On to `NC1(c2ccc(-c3nc4ccn5c(=O)[nH]nc5c4cc3-c3ccccc3)cc2)CCC1` + C[C@@H](Oc1cc(-c2cnn(C3CCNCC3)c2)cnc1N)c1c(Cl)ccc(F)c1Cl [Crizotinib] (first compound 0.4 µM, partner dose 0.2 µM), for which the “cleaved PARP positive nuclei fraction” value was determined as 91.9%. Take `C[C@]1(O)C[C@@H](c2nc(-c3ccc4ccc(-c5ccccc5)nc4c3)c3c(N)nccn32)C1` + Cc1cc(Nc2cc(N3CCN(C)CC3)nc(/C=C/c3ccccc3)n2)n[nH]1 [ENMD2076] (first compound 0.4 µM, partner dose 0.04 µM): the “cleaved PARP positive nuclei fraction” value is 108%. Regarding `Cn1sc(=O)n(Cc2ccccc2)c1=O` + C[C@@H](Oc1cc(-c2cnn(C3CCNCC3)c2)cnc1N)c1c(Cl)ccc(F)c1Cl [Crizotinib] (first compound 0.4 µM, partner dose 0.2 µM), the “cleaved PARP positive nuclei fraction” value came to 93.9%.

On to `NC(=O)c1ccc(N(C(N)=O)c2c(F)cccc2F)nc1-c1ccc(F)cc1F` + CCCCCCCCc1ccc(CCC(N)(CO)CO)cc1 [fingolimod] (first compound 0.4 µM, partner dose 2 µM), for which the “cleaved PARP positive nuclei fraction” value stood at 110%.

Turning to `NC1(c2ccc(-c3nc4ccn5c(=O)[nH]nc5c4cc3-c3ccccc3)cc2)CCC1` + CO[C@H]1C[C@@H]2CC[C@@H](C)[C@@](O)(O2)C(=O)C(=O)N2CCCC[C@H]2C(=O)O[C@H]([C@H](C)C[C@@H]2CC[C@@H](OCCO)[C@H](OC)C2)CC(=O)[C@H](C)/C=C(\C)[C@@H](O)[C@@H](OC)C(=O)[C@H](C)C[C@H](C)/C=C/C=C/C=C/1C [everolimus] (first compound 0.4 µM, partner dose 0.02 µM), the “cleaved PARP positive nuclei fraction” value is 185%.
